PubChem BioAssay AID1259425 | University of Nebraska Medical Center – 2018
Shown is an unselected part of about 14,000 reagents. Further read-outs or replicates are left out here. Not stated in the record: the time to read-out.

Test: 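Seek colon cancer weak points whose silencing resembles KSR1 loss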 (primary screen)
Cells: HCT116 human colon cancer cells
Reagent: siRNA pool against human genes, 50 nM siRNA
Measured: 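After 50 nM siRNA pool, branched-DNA assay measures six marker transcripts per well, minus blank, normalised to the geometric mean of two housekeeping transcripts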
Scale: BNIP3L mRNA: higher = more BNIP3L transcript after knockdown; NDRG1 mRNA: higher = more NDRG1 transcript after knockdown; BNIP3 mRNA: higher = more BNIP3 transcript after knockdown; ALDOC mRNA: higher = more ALDOC transcript after knockdown

Target gene,"BNIP3L mRNA, set 1","NDRG1 mRNA, set 1","BNIP3 mRNA, set 1","ALDOC mRNA, set 1"
PSMG1,0.0365,0.119,0.167,0.0204
CLDN14,0.106,0.294,0.438,0.0217
SAP130,0.207,0.312,0.418,0.0236
CCK,0.115,0.198,0.249,0.0179
TAX1BP1,0.176,0.245,0.372,0.00992
IFNA14,0.106,0.118,0.251,0.0224
TTPA,0.127,0.163,0.234,0.0384
TSHZ3,0.103,0.417,0.337,0.0284
ECI2,0.15,0.336,0.313,0.0431
CXCL2,0.146,0.127,0.369,0.0418
FERRY3,0.082,0.0634,0.204,0.0243
PRKCG,0.233,0.0892,0.464,0.0234
FKBP7,0.139,0.221,0.401,0.0299
GDPD3,0.113,0.272,0.153,0.139
KCNH3,0.201,0.084,0.233,0.00579
THNSL1,0.106,0.455,0.387,0.00866
NDUFS6,0.0794,0.196,0.324,0.0115
RBMX2,0.0753,0.189,0.279,0.00874
SCNM1,0.346,0.888,0.75,0.158
INSIG2,0.127,0.144,0.279,0.0255

2 successive reagents already listed, quoted:
Target gene,"BNIP3L mRNA, set 1","NDRG1 mRNA, set 1","BNIP3 mRNA, set 1","ALDOC mRNA, set 1"
IFNA14,0.106,0.118,0.251,0.0224
TTPA,0.127,0.163,0.234,0.0384
